The text below walks through data of publication PMC4846832, “Discovery of new MD2 inhibitor from chalcone derivatives with anti-inflammatory effects in LPS-induced acute lung injury” (Scientific Reports, 2016).

Amino acid sequences for entries named in this document (tags omitted). Residues count along the entry.
UniProt Q9QUK6, residues 26-835: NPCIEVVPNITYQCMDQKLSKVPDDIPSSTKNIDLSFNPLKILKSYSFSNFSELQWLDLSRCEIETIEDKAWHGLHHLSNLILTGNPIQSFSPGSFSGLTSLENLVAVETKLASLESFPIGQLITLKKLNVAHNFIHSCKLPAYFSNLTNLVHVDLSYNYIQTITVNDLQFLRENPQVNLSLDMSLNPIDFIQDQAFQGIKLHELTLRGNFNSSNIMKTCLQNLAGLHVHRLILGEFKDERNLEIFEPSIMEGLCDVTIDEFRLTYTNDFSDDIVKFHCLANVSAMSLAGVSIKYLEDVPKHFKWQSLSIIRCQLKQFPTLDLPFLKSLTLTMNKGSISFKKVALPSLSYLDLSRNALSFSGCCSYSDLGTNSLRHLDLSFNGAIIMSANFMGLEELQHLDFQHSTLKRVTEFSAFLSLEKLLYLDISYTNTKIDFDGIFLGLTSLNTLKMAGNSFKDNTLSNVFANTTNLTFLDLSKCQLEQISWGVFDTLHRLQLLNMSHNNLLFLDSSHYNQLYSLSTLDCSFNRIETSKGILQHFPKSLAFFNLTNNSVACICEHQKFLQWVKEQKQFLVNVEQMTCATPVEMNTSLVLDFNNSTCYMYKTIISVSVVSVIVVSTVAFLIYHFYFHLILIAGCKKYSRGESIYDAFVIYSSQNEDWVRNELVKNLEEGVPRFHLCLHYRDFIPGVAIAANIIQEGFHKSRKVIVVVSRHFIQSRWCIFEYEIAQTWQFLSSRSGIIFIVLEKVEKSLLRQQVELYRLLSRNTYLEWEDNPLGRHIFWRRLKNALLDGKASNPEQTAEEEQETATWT

No constants are given. Whether binding was seen depends on the method and setting. Binding seen in cells or lysates may run through a third protein. Some results given as binding are weak or reduced against the parent protein; the word gives no strength.

For the assay, the target named is T1, Myeloid differentiation protein 2 (MD2), mouse, endogenous in peritoneal macrophages (mouse (endogenous in MPMs)) (UniProt Q9JHF9).
T1 sequence: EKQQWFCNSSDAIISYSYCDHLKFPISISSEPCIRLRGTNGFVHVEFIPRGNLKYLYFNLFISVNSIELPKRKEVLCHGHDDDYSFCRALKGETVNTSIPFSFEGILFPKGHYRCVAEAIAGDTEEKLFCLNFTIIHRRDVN
Description: co-IP; MPM lysate (400 ug protein) precipitated with MD2 antibody and protein A + G agarose, 4 °C overnight, Western blot; cells treated with vehicle, LPS (0.5 ug/mL, 5 min) or LPS after 10 uM compound 20.

For the substance “Toll-like receptor 4 (TLR4), mouse, endogenous in peritoneal macrophages (from UniProt Q9QUK6 26-835)”, the binding result is given as “binds”.
